Test results taken from the supplement of paper PMC7666118.
Some of the results follow.

Amino acid sequences for entries named in this document (tags omitted). A change or cut given only in a name is not applied to a line headed by its entry.
UniProt Q9BQ52: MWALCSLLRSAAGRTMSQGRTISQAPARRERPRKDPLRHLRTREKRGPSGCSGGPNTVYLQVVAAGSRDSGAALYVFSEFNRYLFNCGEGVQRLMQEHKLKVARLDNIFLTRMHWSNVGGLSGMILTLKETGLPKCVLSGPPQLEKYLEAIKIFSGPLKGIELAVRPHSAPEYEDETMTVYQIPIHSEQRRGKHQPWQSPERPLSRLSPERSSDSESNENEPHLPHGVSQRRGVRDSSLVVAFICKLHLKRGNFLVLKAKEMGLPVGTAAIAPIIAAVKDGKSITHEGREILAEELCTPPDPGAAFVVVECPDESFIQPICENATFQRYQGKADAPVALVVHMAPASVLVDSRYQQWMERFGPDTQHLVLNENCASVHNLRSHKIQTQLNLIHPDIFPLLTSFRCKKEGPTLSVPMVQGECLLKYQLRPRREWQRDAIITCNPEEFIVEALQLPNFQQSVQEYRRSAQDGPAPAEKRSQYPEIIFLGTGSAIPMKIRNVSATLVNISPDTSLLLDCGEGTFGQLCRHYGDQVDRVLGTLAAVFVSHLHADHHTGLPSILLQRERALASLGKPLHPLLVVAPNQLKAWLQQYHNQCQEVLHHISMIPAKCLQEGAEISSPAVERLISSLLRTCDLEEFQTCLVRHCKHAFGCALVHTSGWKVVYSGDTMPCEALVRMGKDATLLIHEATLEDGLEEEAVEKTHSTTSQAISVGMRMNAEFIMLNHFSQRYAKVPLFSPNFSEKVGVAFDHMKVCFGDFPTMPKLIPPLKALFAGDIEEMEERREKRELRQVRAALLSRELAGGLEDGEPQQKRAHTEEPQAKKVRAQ
UniProt P50548: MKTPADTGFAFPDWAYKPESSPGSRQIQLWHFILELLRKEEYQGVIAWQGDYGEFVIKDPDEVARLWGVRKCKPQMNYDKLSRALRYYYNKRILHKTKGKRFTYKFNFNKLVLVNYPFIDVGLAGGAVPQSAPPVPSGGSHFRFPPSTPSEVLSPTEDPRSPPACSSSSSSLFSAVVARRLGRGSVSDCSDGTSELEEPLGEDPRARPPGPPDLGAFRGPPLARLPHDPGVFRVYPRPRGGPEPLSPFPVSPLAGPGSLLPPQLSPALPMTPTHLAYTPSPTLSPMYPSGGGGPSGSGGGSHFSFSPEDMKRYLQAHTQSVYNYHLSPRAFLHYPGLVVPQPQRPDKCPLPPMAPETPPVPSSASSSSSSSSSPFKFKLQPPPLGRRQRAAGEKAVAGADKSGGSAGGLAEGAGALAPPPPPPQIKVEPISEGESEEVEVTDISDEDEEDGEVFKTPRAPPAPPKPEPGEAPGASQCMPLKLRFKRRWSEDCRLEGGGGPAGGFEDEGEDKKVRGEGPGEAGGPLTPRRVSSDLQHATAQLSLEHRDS
UniProt Q96BN8, whole entry: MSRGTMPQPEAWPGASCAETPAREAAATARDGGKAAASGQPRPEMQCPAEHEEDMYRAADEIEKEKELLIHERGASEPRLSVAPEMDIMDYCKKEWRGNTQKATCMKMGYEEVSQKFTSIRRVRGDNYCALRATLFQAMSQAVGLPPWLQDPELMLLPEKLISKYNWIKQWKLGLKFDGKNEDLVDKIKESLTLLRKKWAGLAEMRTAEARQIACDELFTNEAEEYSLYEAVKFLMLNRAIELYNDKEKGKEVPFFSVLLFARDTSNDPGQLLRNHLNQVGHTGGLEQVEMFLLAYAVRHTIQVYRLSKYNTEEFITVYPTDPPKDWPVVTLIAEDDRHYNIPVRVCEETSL
UniProt Q96G46: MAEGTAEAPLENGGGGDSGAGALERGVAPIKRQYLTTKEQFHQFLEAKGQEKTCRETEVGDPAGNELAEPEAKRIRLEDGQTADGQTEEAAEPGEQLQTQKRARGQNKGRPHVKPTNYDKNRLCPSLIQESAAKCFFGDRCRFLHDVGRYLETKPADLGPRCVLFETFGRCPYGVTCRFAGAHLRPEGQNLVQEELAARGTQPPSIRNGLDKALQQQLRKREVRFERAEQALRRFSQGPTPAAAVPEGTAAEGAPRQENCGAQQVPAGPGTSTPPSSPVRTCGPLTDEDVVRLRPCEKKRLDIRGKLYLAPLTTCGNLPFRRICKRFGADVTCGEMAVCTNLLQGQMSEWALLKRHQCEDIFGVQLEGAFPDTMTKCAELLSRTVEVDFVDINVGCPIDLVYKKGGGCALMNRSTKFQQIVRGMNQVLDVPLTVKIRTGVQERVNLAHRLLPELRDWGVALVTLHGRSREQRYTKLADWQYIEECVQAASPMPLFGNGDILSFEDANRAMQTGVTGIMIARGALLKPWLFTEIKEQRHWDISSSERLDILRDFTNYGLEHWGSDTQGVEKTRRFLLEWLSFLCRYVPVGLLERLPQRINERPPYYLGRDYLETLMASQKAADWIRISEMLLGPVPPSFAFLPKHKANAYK
UniProt Q04637, whole entry: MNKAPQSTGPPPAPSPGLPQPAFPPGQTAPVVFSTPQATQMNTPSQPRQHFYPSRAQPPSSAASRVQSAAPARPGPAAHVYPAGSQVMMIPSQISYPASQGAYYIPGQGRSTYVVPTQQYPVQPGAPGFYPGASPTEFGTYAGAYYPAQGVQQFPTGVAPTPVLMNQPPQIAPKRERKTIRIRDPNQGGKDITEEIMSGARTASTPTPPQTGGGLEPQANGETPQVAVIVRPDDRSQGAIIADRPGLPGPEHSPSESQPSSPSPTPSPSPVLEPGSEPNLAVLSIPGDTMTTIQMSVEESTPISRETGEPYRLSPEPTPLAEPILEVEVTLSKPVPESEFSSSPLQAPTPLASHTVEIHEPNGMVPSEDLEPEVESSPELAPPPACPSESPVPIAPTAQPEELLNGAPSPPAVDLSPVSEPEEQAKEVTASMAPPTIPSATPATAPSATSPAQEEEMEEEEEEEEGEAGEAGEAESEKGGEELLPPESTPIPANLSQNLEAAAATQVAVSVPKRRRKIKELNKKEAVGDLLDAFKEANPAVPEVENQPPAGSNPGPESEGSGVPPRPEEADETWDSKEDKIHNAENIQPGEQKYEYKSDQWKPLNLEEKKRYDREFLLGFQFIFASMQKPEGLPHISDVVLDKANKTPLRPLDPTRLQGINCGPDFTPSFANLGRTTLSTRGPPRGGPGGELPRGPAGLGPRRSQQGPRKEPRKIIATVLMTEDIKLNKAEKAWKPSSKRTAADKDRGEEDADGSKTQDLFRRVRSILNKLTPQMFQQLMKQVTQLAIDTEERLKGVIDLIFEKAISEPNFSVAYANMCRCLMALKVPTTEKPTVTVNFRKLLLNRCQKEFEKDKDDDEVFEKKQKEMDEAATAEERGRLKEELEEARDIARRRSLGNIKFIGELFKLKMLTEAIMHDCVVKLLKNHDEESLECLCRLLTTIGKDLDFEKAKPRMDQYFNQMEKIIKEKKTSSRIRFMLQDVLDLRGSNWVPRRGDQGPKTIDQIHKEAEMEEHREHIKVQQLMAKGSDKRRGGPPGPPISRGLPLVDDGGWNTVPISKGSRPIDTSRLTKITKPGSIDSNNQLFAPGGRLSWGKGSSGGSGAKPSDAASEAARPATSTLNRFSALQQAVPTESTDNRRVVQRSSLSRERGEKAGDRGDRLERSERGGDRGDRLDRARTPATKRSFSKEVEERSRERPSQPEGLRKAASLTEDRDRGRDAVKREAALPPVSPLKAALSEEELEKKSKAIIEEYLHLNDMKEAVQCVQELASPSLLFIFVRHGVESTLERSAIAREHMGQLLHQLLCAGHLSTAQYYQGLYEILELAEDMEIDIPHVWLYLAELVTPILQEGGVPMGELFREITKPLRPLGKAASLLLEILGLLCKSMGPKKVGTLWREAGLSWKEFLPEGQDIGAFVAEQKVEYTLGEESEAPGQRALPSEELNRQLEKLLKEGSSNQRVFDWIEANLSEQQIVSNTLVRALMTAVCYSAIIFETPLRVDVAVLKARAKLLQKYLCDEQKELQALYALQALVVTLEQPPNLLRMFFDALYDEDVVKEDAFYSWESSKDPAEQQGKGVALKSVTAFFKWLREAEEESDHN
UniProt P19525: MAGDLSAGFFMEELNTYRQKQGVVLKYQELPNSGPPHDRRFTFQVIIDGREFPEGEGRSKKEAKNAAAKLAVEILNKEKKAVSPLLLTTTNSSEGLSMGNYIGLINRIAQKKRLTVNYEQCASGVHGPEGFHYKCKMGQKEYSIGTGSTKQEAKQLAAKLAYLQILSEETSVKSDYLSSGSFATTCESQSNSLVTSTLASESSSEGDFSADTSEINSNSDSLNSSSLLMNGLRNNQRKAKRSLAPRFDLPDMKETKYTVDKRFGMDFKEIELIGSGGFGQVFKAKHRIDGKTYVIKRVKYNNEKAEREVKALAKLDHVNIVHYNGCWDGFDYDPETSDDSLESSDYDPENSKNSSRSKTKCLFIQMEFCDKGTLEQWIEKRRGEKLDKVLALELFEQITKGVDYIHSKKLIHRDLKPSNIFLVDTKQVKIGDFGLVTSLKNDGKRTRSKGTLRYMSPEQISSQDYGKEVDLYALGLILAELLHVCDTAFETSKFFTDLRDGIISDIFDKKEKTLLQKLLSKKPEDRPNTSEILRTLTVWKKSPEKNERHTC
UniProt Q8WUF8: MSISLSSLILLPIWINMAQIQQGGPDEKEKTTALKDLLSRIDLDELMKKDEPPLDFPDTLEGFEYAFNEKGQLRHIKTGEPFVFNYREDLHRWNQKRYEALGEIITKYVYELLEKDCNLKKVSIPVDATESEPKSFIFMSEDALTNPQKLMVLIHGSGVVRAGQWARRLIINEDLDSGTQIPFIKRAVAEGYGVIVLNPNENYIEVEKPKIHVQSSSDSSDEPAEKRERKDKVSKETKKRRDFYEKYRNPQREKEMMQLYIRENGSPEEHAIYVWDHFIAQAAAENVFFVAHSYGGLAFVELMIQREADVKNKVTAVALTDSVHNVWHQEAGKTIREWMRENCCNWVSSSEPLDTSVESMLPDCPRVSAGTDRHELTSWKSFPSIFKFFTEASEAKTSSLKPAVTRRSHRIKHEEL
UniProt Q5VSL9: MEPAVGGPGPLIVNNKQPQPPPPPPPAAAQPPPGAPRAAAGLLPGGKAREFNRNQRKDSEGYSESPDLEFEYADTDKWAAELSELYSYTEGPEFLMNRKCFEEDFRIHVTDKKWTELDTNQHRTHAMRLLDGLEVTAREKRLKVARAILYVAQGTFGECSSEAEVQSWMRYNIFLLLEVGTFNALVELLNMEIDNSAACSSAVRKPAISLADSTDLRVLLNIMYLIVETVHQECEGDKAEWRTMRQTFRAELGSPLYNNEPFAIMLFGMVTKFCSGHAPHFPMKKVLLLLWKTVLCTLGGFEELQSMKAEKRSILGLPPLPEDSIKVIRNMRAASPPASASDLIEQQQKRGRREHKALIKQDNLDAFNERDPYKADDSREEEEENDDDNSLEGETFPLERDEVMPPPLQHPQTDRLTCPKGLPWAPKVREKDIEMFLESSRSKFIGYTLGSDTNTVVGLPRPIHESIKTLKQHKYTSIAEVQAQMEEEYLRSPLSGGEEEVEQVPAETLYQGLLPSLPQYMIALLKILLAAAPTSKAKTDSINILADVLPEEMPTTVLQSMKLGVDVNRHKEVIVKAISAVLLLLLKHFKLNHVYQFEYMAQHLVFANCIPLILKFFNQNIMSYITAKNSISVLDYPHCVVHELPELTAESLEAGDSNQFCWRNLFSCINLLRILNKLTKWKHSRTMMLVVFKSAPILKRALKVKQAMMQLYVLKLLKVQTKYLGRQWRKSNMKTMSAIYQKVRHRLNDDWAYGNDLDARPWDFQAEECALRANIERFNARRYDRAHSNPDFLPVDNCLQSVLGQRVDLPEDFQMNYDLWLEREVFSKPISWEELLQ
UniProt Q9C073: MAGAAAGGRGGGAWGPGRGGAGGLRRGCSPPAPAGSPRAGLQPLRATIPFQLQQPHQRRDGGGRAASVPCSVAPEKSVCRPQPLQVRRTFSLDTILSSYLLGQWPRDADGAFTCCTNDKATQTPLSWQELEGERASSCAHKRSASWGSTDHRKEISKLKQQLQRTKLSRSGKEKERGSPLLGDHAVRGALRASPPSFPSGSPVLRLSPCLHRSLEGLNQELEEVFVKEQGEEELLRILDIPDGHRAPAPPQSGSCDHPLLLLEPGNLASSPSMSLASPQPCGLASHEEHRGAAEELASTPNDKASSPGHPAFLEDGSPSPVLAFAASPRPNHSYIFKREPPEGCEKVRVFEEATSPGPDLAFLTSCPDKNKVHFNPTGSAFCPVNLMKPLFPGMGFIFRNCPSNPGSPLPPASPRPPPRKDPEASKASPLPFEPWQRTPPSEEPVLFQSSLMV
UniProt Q56P03: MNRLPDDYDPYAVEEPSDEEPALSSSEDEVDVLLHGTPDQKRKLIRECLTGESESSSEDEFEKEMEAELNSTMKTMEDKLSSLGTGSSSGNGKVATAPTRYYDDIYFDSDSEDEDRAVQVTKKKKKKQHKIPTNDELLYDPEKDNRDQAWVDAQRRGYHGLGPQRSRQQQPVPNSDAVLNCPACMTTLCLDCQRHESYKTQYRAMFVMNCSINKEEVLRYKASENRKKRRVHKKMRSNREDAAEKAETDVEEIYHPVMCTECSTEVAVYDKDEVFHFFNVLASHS

Compound: COc1ccc(Cn2ccc3cc(C)c(C(=O)NO)cc32)cc1
Assay: dose-dependent thermal stabilisation call (2D-TPP, DLPTP, 10% FDR) (binary (1 = stabilised)); higher = stabilised by the compound
Conditions: system: HL-60 intact cells; concentration range 0.04-10 µM
Method: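 2D thermal proteome profiling in intact HL-60 cells treated with BRD-3811 (0, 0.04, 0.29, 2, 10 uM) for 90 min at 37 C, then heated 3 min at one of 12 temperatures (42-63.9 C). Soluble protein was quantified by TMT10 MS. The value is the DLPTP call of the paper: dose-dependent thermal stabilisation over all temperatures at 10% FDR (F-test of a dose-response against a flat model); one experiment, one call per tested protein.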

Row | Target | dose-dependent thermal stabilisation call
1 | EFHA1 (UniProt Q8IYU8) | inactive: 0
2 | ELAC2 (UniProt Q9BQ52) | inactive: 0
3 | ERF (UniProt P50548) | inactive: 0
4 | EIF5 (UniProt P55010) | inactive: 0
5 | EIF3B (UniProt P55884) | inactive: 0
6 | EIF4B (UniProt P23588) | inactive: 0
7 | FAF1 (UniProt Q9UNN5) | inactive: 0
8 | FAM105B (UniProt Q96BN8) | inactive: 0
9 | DUS3L (UniProt Q96G46) | inactive: 0
10 | DUS2L (UniProt Q9NX74) | inactive: 0
11 | ETFA (UniProt P13804) | inactive: 0
12 | DUS1L (UniProt Q6P1R4) | inactive: 0
13 | EIF4G1 (UniProt Q04637) | inactive: 0
14 | EXOSC10 (UniProt Q01780) | inactive: 0
15 | EIF2AK2 (UniProt P19525) | inactive: 0
16 | FAM172A (UniProt Q8WUF8) | inactive: 0
17 | EHBP1 (UniProt Q8NDI1) | inactive: 0
18 | FAM40A (UniProt Q5VSL9) | inactive: 0
19 | FAM117A (UniProt Q9C073) | inactive: 0
20 | EIF4ENIF1 (UniProt Q9NRA8) | inactive: 0
21 | FAM118B (UniProt Q9BPY3) | inactive: 0
22 | DYNC1H1 (UniProt Q14204) | inactive: 0
23 | EAPP (UniProt Q56P03) | inactive: 0
24 | EEF2 (UniProt P13639) | inactive: 0
25 | ELF1 (UniProt P32519) | inactive: 0
26 | ERCC3 (UniProt P19447) | inactive: 0
27 | FAM107B (UniProt Q9H098) | inactive: 0
